The whole screen tested about 140,000 compounds, of which about 4,300 (3.1%) were called active. This list was built around the results that the source calls inconclusive (neither active nor inactive); the mix of calls is not that of the screen.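 How the source made its calls: active means readout at or below -70, meaning at least 70% loss of cells showing the perinucleolar compartment, a nuclear body marking cancer cells; inconclusive means readout between -30 and a set limit; inactive means the rest.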
assay: High Content Assay for Compounds that inhibit the Assembly of the Perinucleolar Compartment; details: PC3M PTB-GFP, PNC prevalence imaging, 16 h; at 10 µM; stronger effect = lower value;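 further: plate controls were DMSO wells for no effect and camptothecin positive control wells for full effect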
Outline: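 Read-out is percentage of cells bearing a perinucleolar compartment, from automated 20x imaging of fixed, Hoechst-stained PC3M PTB-GFP cells. Cells were seeded 4 h, then exposed 16 h to compound (23 nl of library stock) in duplicate plates.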

SMILES | activity change (PNC), negative = inhibition
COc1ccc(OC)c(S(=O)(=O)n2cccn2)c1 | inconclusive: -40.7%
Fc1cccc(NC(=S)N2CCCCC2)c1 | inactive: 109%
CCNC(=O)NC(=O)CSc1cccc(C(F)(F)F)c1 | inconclusive: -58.9%
CC(C)c1ccc(NC(=O)N2CCC(c3nc4ccccc4o3)CC2)cc1 | inconclusive: -63.4%
Cc1nn(C)cc1/C=N/NC(=O)C(C)(C)Oc1ccc(Cl)cc1 | inconclusive: -50.2%
O=C(CSc1nnc(-c2ccccc2)c(-c2ccccc2)n1)Nc1ccc(Br)cn1 | inactive: 29.9%
CN(c1ccccc1)S(=O)(=O)c1cccc(NC(=O)CSc2ncc(C(F)(F)F)cc2Cl)c1 | inconclusive: -51.4%
O=C(Cc1ccccc1)Nc1c2c(nn1-c1cccc(Cl)c1)CS(=O)(=O)C2 | inconclusive: -48.9%
CCOC(=O)C1CCCN(C(=O)CN2C(=O)COc3ccc(C(C)(C)C)cc32)C1 (centres undefined) | inconclusive: -53.2%
O=C(O)CC1S/C(=N/N=C/c2ccc(-c3ccc(Cl)cc3[N+](=O)[O-])o2)NC1=O (centres undefined) | inactive: -28.2%
CCN(c1ccccc1)S(=O)(=O)c1ccc(C(=O)OC(C)C(=O)NCCC2=CCCCC2)cc1 (centres undefined) | inconclusive: -62.1%
CC(=O)Nc1nnc(SCC(=O)NCCOc2ccccc2)s1 | inconclusive: -60.9%
O=C(Cn1cnc2ccccc21)N/N=C/c1ccccc1[N+](=O)[O-] | inconclusive: -46%
COc1ccccc1OCCN1CSC(=S)N(C)C1 | inactive: 36.9%
Cc1cc(C)nc(NC(=O)c2ccc(C)c([N+](=O)[O-])c2)n1 | inconclusive: -31.1%
Cc1cc(C(=O)CSc2nnc(-c3ccc(F)cc3)o2)c(C)n1CC1COc2ccccc2O1 (centres undefined) | inactive: 34.8%
CCOC(=O)C1=C(C)Nc2ccccc2N=C1NC(=O)Cc1ccc(OC)cc1 | inactive: 2.36%
CCC(C)NC(=O)C1c2cc(OC)c(OC)cc2C(=O)N(C)C1c1ccc(OC)cc1 (centres undefined) | active: -100%
O=c1c2ccccc2cnn1-c1ccc(Cl)cc1 | inconclusive: -32.4%
CCCCN1C[C@H](O)[C@@H](O)[C@H](O)[C@H]1CO | inconclusive: -51.6%
O=C(COc1ccc2ccccc2c1)N1CCCC1 | inconclusive: -43%
CCCOc1ccc(C(=O)Nc2c[nH]c(=O)[nH]c2=O)cc1 | inconclusive: -58.4%
CNc1ccc(Br)cc(C(=O)/C=C/c2cccc(OC)c2OC)c1=O | inactive: -22.2%

SMILES | activity change (PNC), negative = inhibition
O=C(Nc1ccccc1)N1CCn2c1nc1ccccc12 | inconclusive: -34.4%
CC(=O)Nc1ccccc1N(CC(O)Cn1c2ccccc2c2ccccc21)S(=O)(=O)c1ccc(C)cc1 (centres undefined) | inconclusive: -32.8%
CC1(C)Cc2nc3sc4c(=O)n(CC(=O)NCc5ccccc5)cnc4c3cc2CO1 | inactive: 6.84%
CCOC(=O)c1ccccc1NC(=O)CN(c1ccccc1OC)S(C)(=O)=O | inconclusive: -35.8%
COc1ccc(Oc2ncc(CN3CCN(c4ccccc4)CC3)s2)cc1 | inconclusive: -55.3%
CCN(CC)S(=O)(=O)c1ccc2c(c1)nc(SCC(=O)N1CCOCC1)n2-c1ccccc1OC | inconclusive: -36.4%
COc1ccc(NC(=O)Cn2nnc(-c3ccccc3N)n2)cc1OC | inconclusive: -30.4%
Cc1ccc(NC(=O)C(C)Sc2nnc(-c3cccnc3)n2-c2ccccc2)cc1 (centres undefined) | inconclusive: -52.7%
Cc1cccc(N2CCN(C(=O)c3ccccc3NC(=O)C3CCCCC3C(=O)O)CC2)c1 (centres undefined) | inactive: 0.826%
CC1CCCCN1CCNC(=O)CN1C(=O)COc2ccccc21 (centres undefined) | inconclusive: -47.1%
O=C(NCC1CCCO1)c1ccc2c(=O)n(Cc3ccco3)c(SCC(=O)N3CCCC3)nc2c1 (centres undefined) | inactive: 39.5%
CCc1nnc(NS(=O)(=O)c2ccc(N=Cc3c(C)[nH]n(-c4ccc(C)c(C)c4)c3=O)cc2)s1 | inconclusive: -61.8%
O=C(C1CCCO1)N1CCN(C(=S)Nc2ccc(F)cc2)CC1 (centres undefined) | inconclusive: -47.9%
COc1cccc(C(=O)Nc2ncc3c(n2)CC(C)CC3=O)c1 (centres undefined) | inconclusive: -30.2%
CCC(C)(C)NC(=O)CN(C(=O)CNS(=O)(=O)c1ccc(C)cc1)c1ccc2c(c1)OCCO2 | inconclusive: -54.7%
COc1ccc2[nH]c(=O)c(CN(CCN(C)C)C(=O)NCc3ccccc3)cc2c1 | inconclusive: -49.5%
Cc1ccc(OCCn2ccc(=O)[nH]c2=O)cc1C | inconclusive: -64.5%
COc1cccc(-c2cc(C(=O)Nc3cnn(Cc4ccccc4C)c3)no2)c1 | inconclusive: -52.7%
CNS(=O)(=O)c1cccc(C(=O)OCC(=O)N2CCc3ccccc3C2)c1 | inactive: 0.415%
O=C(NC(=S)N1CCc2ccccc21)c1ccccc1Br | inconclusive: -71.2%
CC(=O)NC(=S)Nc1ccc(NC(=O)c2cccs2)cc1 | inconclusive: -33.4%
NNC(=O)C12CC3CC(C1)CC(n1ncnn1)(C3)C2 | inactive: 7.78%
CC1CC(C)(C)NC(C)c2ccccc21 (centres undefined) | inactive: -7.28%

SMILES | activity change (PNC), negative = inhibition
CCN(CC)C(=O)CSc1nnc(-c2ccc(S(=O)(=O)N3CCCC3)cc2)o1 | inconclusive: -42.7%
c1ccc2c(c1)CCCC2C1=NCCN1 (centres undefined) | inactive: 18.3%
S=c1[nH]nc(COc2ccc3c(c2)OCO3)n1-c1ccccc1 | inconclusive: -33.4%
Cc1nnc(-c2cnn(-c3ccccc3)c2N)n1Cc1cccc(C(F)(F)F)c1 | inactive: -10%
Cc1onc(-c2ccccc2)c1C(=O)Nc1nc2c(s1)CCCC2 | inactive: 36.4%
CC(=O)c1cccc(NC(=O)CN(c2ccccc2F)S(C)(=O)=O)c1 | inconclusive: -31.1%
CCOC(=O)c1c(C)n(C)c2c(C)cc(O)c(OC(C)=O)c12 | inconclusive: -32%
CCOc1ccccc1NS(=O)(=O)c1ccc(OC)c(OC)c1 | inconclusive: -70.8%
O=C(NC(=S)N1CCCc2ccccc21)c1ccc([N+](=O)[O-])cc1 | inconclusive: -58.1%
COc1ccc(/C=C/C(=O)Nc2ccc(OC)cc2[N+](=O)[O-])cc1 | inactive: -10.7%
COc1ccccc1NS(=O)(=O)c1ccc(O)c(C(N)=O)c1 | inconclusive: -59.9%
Cc1nc(N)sc1C(=O)N/N=C/c1c[nH]c2ccccc12 | inconclusive: -75%
Nc1ccc(C23CC4CC(CC(CO)(C4)C2)C3)cc1 | inactive: 5.84%
O=C(CCCc1c[nH]c2ccccc12)Nc1ccc2ccccc2c1 | inconclusive: -58.8%
CCN(C(=O)c1cccs1)c1nnc(-c2ccncc2)s1 | inconclusive: -43.2%
CSc1nc2sc3c(c2c(=O)[nH]1)CCCC3 | inconclusive: -33.8%
N#C/C(=C(/O)CN1CCCCC1)c1nc(-c2ccc(Cl)cc2)cs1 | inconclusive: -55.8%
COCCn1c(-c2ccco2)csc1=Nc1cccnc1 | inactive: -14.2%
CC(C)CC(OC(=O)c1ccco1)C(=O)NCC1CCCO1 (centres undefined) | inconclusive: -70.8%
CCCCC(=O)Nc1cccc(C(=O)N/N=C/c2ccc(OC)cc2OC)c1 | inactive: -9.85%
Cc1ccc(NC(=O)c2c(-c3c(F)cccc3Cl)noc2C)cc1F | inconclusive: -50.8%
Cc1cc2nc(SCCOC(=O)Nc3ccccc3)nc(C)c2cc1C | inconclusive: -46.6%
CC1CCN(c2ccc(C(=O)NCc3cccs3)cn2)CC1 | inactive: 36.8%

Two of the compounds above, as a markdown table.

| SMILES | activity change (PNC), negative = inhibition |
| --- | --- |
| Cc1cc2nc(SCCOC(=O)Nc3ccccc3)nc(C)c2cc1C | inconclusive: -46.6% |
| CC1CCN(c2ccc(C(=O)NCc3cccs3)cn2)CC1 | inactive: 36.8% |

(more compounds)

SMILES | activity change (PNC), negative = inhibition
COCCn1nnnc1C(c1ccc(C)cc1)N1CCN(Cc2ccc3c(c2)OCO3)CC1 (centres undefined) | inactive: 9.03%
O=C(Sc1nnnn1C1CCCCC1)c1cccs1 | inconclusive: -69.3%
O=C(Nc1ccc(S(=O)(=O)NC2CCCCC2)cc1)c1ccco1 | active: -100%
CC1CCC(NC(=O)c2ccc(/C=C3\Oc4ccccc4N(C)C3=O)cc2)CC1 (centres undefined) | inconclusive: -42.4%
Cc1cccc(NS(=O)(=O)c2cc(C(=O)OCC(=O)Nc3cc(C)on3)ccc2C)c1 | inconclusive: -65.7%
O=c1oc2ccccc2c(NC(c2ccccc2)c2ccccc2)c1[N+](=O)[O-] | inactive: 9.45%
CCCCCn1c(=O)[nH]c2cc(C(=O)NCCc3ccc(OC)c(OC)c3)ccc2c1=O | inactive: 4.87%
COC(=O)C(C(=O)OC)C(C[N+](=O)[O-])c1ccc(O)c(OC)c1 (centres undefined) | inactive: -3.57%
CC(C)=CC/C=C1\CCC(C(=O)O)C(C(=O)O)C1 (centres undefined) | inconclusive: -38.5%
Cc1ccc2cccc(SCC(=O)NCc3ccco3)c2n1 | inconclusive: -35.3%
Cc1cccc(NC(=O)CCCN2C(=O)c3ccccc3C2=O)n1 | inactive: 27.6%
O=C(NC(=S)NCc1ccccc1)c1ccccc1F | inactive: 43.6%
Cn1c(=O)n(C)c2cc(NC(=O)CSc3nnc(-c4ccccc4O)n3-c3ccccc3)ccc21 | inconclusive: -39.4%
CCOc1ccc(NC(=O)C2CCN(S(=O)(=O)c3c(C)n[nH]c3C)CC2)cc1 | inconclusive: -52%
O=C(CSc1nc2c([nH]c3ccccc32)c(=O)n1-c1ccccc1)N1CCOCC1 | inconclusive: -43.3%
CCOC(=O)NCC(C)(C)CNC(=O)OCC | active: -117%
O=C(CCN1C(=O)COc2ccccc21)NCc1cccs1 | inconclusive: -35.7%
CCOC(=O)c1oc2ccc(S(=O)(=O)N3CCC(C)CC3)cc2c1C | inconclusive: -52%
O=C(NCCC1=CCCCC1)C1CCCN(c2nc3ccccc3o2)C1 (centres undefined) | inactive: -23.7%
Cc1cc(=O)oc2cc(OCCSCCN3CCOCC3)ccc12 | inconclusive: -37.6%

Nothing new here: an excerpt of the list.
SMILES | activity change (PNC), negative = inhibition
Cc1onc(-c2ccccc2)c1C(=O)Nc1nc2c(s1)CCCC2 | inactive: 36.4%
CC(=O)c1cccc(NC(=O)CN(c2ccccc2F)S(C)(=O)=O)c1 | inconclusive: -31.1%
